Laboratory results reported in article PMC7694386.

Sequences of proteins named here, by UniProt entry; tags and fusion partners are left off.
UniProt O95817: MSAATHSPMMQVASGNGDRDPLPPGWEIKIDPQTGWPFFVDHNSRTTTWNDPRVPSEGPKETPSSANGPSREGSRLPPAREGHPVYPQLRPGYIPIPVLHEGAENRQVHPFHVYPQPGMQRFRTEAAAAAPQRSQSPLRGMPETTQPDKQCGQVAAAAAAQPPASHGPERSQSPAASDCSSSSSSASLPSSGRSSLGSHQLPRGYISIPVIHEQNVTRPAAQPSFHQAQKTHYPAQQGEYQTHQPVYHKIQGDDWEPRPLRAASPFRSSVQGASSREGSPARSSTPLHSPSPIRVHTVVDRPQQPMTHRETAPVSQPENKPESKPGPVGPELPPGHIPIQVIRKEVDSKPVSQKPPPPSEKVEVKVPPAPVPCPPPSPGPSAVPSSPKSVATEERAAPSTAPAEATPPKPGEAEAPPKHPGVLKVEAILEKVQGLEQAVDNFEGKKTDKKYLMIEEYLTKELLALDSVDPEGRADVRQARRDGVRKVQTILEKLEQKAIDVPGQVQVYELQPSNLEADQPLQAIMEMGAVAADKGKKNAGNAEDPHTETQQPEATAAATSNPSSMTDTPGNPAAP

B1: DCP1B (protein, UniProt Q8IZD4 1-617)
chain: MAAVAAGGLVGKGRDISLAALQRHDPYINRIVDVASQVALYTFGHRANEWEKTDVEGTLFVYTRSASPKHGFTIMNRLSMENRTEPITKDLDFQLQDPFLLYRNARLSIYGIWFYDKEECQRIAELMKNLTQYEQLKAHQGTGAGISPVILNSGEGKEVDILRMLIKAKDEYTKCKTCSEPKKITSSSAIYDNPNLIKPIPVKPSENQQQRIPQPNQTLDPEPQHLSLTALFGKQDKATCQETVEPPQTLHQQQQQQQQQQEKLPIRQGVVRSLSYEEPRRHSPPIEKQLCPAIQKLMVRSADLHPLSELPENRPCENGSTHSAGEFFTGPVQPGSPHNIGTSRGVQNASRTQNLFEKLQSTPGAANKCDPSTPAPASSAALNRSRAPTSVTPVAPGKGLAQPPQAYFNGSLPPQTVGHQAHGREQSTLPRQTLPISGSQTGSSGVISPQELLKKLQIVQQEQQLHASNRPALAAKFPVLAQSSGTGKPLESWINKTPNTEQQTPLFQVISPQRIPATAAPSLLMSPMVFAQPTSVPPKERESGLLPVGGQEPPAAATSLLLPIQSPEPSVITSSPLTKLQLQEALLYLIQNDDNFLNIIYEAYLFSMTQAAMKKTM
B2: Plastin-3 (protein, UniProt P13797 1-630)
chain: MDEMATTQISKDELDELKEAFAKVDLNSNGFICDYELHELFKEANMPLPGYKVREIIQKLMLDGDRNKDGKISFDEFVYIFQEVKSSDIAKTFRKAINRKEGICALGGTSELSSEGTQHSYSEEEKYAFVNWINKALENDPDCRHVIPMNPNTDDLFKAVGDGIVLCKMINLSVPDTIDERAINKKKLTPFIIQENLNLALNSASAIGCHVVNIGAEDLRAGKPHLVLGLLWQIIKIGLFADIELSRNEALAALLRDGETLEELMKLSPEELLLRWANFHLENSGWQKINNFSADIKDSKAYFHLLNQIAPKGQKEGEPRIDINMSGFNETDDLKRAESMLQQADKLGCRQFVTPADVVSGNPKLNLAFVANLFNKYPALTKPENQDIDWTLLEGETREERTFRNWMNSLGVNPHVNHLYADLQDALVILQLYERIKVPVDWSKVNKPPYPKLGANMKKLENCNYAVELGKHPAKFSLVGIGGQDLNDGNQTLTLALVWQLMRRYTLNVLEDLGDGQKANDDIIVNWVNRTLSEAGKSTSIQSFKDKTISSSLAVVDLIDAIQPGCINYDLVKSGNLTEDDKHNNAKYAVSMARRIGARVYALPEDLVEVKPKMVMTVFACLMGRGMKRV
B3: DDX51 (protein, UniProt Q8N8A6 1-666)
chain: MALFYVARYPGPDAAAAAGPEGAEAGAHGRARALLERLQSRARERQQQREPAQTEAAASTEPATRRRRRPRRRRRVNDAEPGSPEAPQGKRRKADGEDAGAESNEEAPGEPSAGSSEEAPGEPSAGSSEEAPGERSTSASAEAAPDGPALEEAAGPLVPGLVLGGFGKRKAPKVQPFLPRWLAEPNCVRRNVTEDLVPIEDIPDVHPDLQKQLRAHGISSYFPVQAAVIPALLESAACGFLVGRGGYRPSDLCVSAPTGSGKTLAFVIPVVQALLSRVVCHIRALVVLPTKELAQQVSKVFNIYTDATPLRVSLVTGQKSLAKEQESLVQKTADGYRCLADIVVATPGRLVDHIDQTPGFSLQQLRFLIIDEADRMIDSMHQSWLPRVVAAAFQSEDPADPCALLQRRQAQAVTAASTCCPQMPLQKLLFSATLTQNPEKLQQLGLHQPRLFSTGLAHRGLEDTDGDGDSGKYAFPVGLTHHYVPCSLSSKPLVVLHLVLEMGFSRVLCFTNSRENSHRLFLLVQAFGGVDVAEFSSRYGPGQRRMILKQFEQGKIQLLISTDATARGIDVQGVELVVNYDAPQYLRTYVHRVGRTARAGKTGQAFTLLLKVQERRFLRMLTEAGAPELQRHELSSKLLQPLVPRYEEALSQLEESVKEERKQRAA
B4: DDX52 (protein, UniProt Q9Y2R4 1-599)
chain: MDVHDLFRRLGAGAKFDTRRFSADAARFQIGKRKYDFDSSEVLQGLDFFGNKKSVPGVCGASQTHQKPQNGEKKEESLTERKREQSKKKRKTMTSEIASQEEGATIQWMSSVEAKIEDKKVQRESKLTSGKLENLRKEKINFLRNKHKIHVQGTDLPDPIATFQQLDQEYKINSRLLQNILDAGFQMPTPIQMQAIPVMLHGRELLASAPTGSGKTLAFSIPILMQLKQPANKGFRALIISPTRELASQIHRELIKISEGTGFRIHMIHKAAVAAKKFGPKSSKKFDILVTTPNRLIYLLKQDPPGIDLASVEWLVVDESDKLFEDGKTGFRDQLASIFLACTSHKVRRAMFSATFAYDVEQWCKLNLDNVISVSIGARNSAVETVEQELLFVGSETGKLLAVRELVKKGFNPPVLVFVQSIERAKELFHELIYEGINVDVIHAERTQQQRDNTVHSFRAGKIWVLICTALLARGIDFKGVNLVINYDFPTSSVEYIHRIGRTGRAGNKGKAITFFTEDDKPLLRSVANVIQQAGCPVPEYIKGFQKLLSKQKKKMIKKPLERESISTTPKCFLEKAKDKQKKVTGQNSKKKVALEDKS
B5: DHX33 (protein, UniProt Q9H6R0 1-707)
chain: MPEEAGFPPAKRFRPGSGPPSRAGSFPPGRQVVMLLTAGSGGRGGGGGRRQQPPLAQPSASPYPEAVELQRRSLPIFQARGQLLAQLRNLDNAVLIGETGSGKTTQIPQYLYEGGISRQGIIAVTQPRRVAAISLATRVSDEKRTELGKLVGYTVRFDDVTSEDTRIKFLTDGMLLREAISDSLLRKYSCVILDEAHERTIHTDVLFGVVKAAQKRRKELGKLPLKVIVMSATMDVDLFSQYFNGAPVLYLEGRQHPIQVFYTKQPQNDYLHAALVSVFQIHQEAPSSQDILVFLTGQEEIEAMSKTCRDIAKHLPDGCPAMLVLPLYASLPYAQQLRVFQGAPKGYRKVIISTNIAETSITITGIKYVVDTGMVKAKKYNPDSGLEVLAVQRVSKTQAWQRTGRAGREDSGICYRLYTEDEFEKFDKMTVPEIQRCNLASVMLQLLAMKVPNVLTFDFMSKPSPDHIQAAIAQLDLLGALEHKDDQLTLTPMGRKMAAFPLEPKFAKTILMSPKFHCTEEILTIVSLLSVDSVLHNPPSRREEVQGVRKKFISSEGDHMTLLNIYRTFKNLGGNKDWCKENFVNSKNMTLVAEVRAQLRDICLKMSMPIASSRGDVESVRRCLAHSLFMSTAELQPDGTYATTDTHQPVAIHPSSVLFHCKPACVVYTELLYTNKCYMRDLCVIDAQWLYEAAPEYFRRKLRTARN
B6: NHP2 (protein, UniProt Q9NX24 1-153)
chain: MTKIKADPDGPEAQAEACSGERTYQELLVNQNPIAQPLASRRLTRKLYKCIKKAVKQKQIRRGVKEVQKFVNKGEKGIMVLAGDTLPIEVYCHLPVMCEDRNLPYVYIPSKTDLGAAAGSKRPTCVIMVKPHEEYQEAYDECLEEVQSLPLPL
B7: NOC4L (protein, UniProt Q9BVI4 1-516)
chain: MEREPGAAGVRRALGRRLEAVLASRSEANAVFDILAVLQSEDQEEIQEAVRTCSRLFGALLERGELFVGQLPSEEMVMTGSQGATRKYKVWMRHRYHSCCNRLGELLGHPSFQVKELALSALLKFVQLEGAHPLEKSKWEGNYLFPRELFKLVVGGLLSPEEDQSLLLSQFREYLDYDDTRYHTMQAAVDAVARVTGQHPEVPPAFWNNAFTLLSAVSLPRREPTVSSFYVKRAELWDTWKVAHLKEHRRVFQAMWLSFLKHKLPLSLYKKVLLIVHDAILPQLAQPTLMIDFLTRACDLGGALSLLALNGLFILIHKHNLEYPDFYRKLYGLLDPSVFHVKYRARFFHLADLFLSSSHLPAYLVAAFAKRLARLALTAPPEALLMVLPFICNLLRRHPACRVLVHRPHGPELDADPYDPGEEDPAQSRALESSLWELQALQRHYHPEVSKAASVINQALSMPEVSIAPLLELTAYEIFERDLKKKGPEPVPLEFIPAQGLLGRPGELCAQHFTLS
B8: NOB1 (protein, UniProt Q9ULX3 1-412)
chain: MAPVEHVVADAGAFLRHAALQDIGKNIYTIREVVTEIRDKATRRRLAVLPYELRFKEPLPEYVRLVTEFSKKTGDYPSLSATDIQVLALTYQLEAEFVGVSHLKQEPQKVKVSSSIQHPETPLHISGFHLPYKPKPPQETEKGHSACEPENLEFSSFMFWRNPLPNIDHELQELLIDRGEDVPSEEEEEEENGFEDRKDDSDDDGGGWITPSNIKQIQQELEQCDVPEDVRVGCLTTDFAMQNVLLQMGLHVLAVNGMLIREARSYILRCHGCFKTTSDMSRVFCSHCGNKTLKKVSVTVSDDGTLHMHFSRNPKVLNPRGLRYSLPTPKGGKYAINPHLTEDQRFPQLRLSQKARQKTNVFAPDYIAGVSPFVENDISSRSATLQVRDSTLGAGRRRLNPNASRKKFVKKR
B9: REXO4 (protein, UniProt Q9GZR2 1-422)
chain: MGKAKVPASKRAPSSPVAKPGPVKTLTRKKNKKKKRFWKSKAREVSKKPASGPGAVVRPPKAPEDFSQNWKALQEWLLKQKSQAPEKPLVISQMGSKKKPKIIQQNKKETSPQVKGEEMPAGKDQEASRGSVPSGSKMDRRAPVPRTKASGTEHNKKGTKERTNGDIVPERGDIEHKKRKAKEAAPAPPTEEDIWFDDVDPADIEAAIGPEAAKIARKQLGQSEGSVSLSLVKEQAFGGLTRALALDCEMVGVGPKGEESMAARVSIVNQYGKCVYDKYVKPTEPVTDYRTAVSGIRPENLKQGEELEVVQKEVAEMLKGRILVGHALHNDLKVLFLDHPKKKIRDTQKYKPFKSQVKSGRPSLRLLSEKILGLQVQQAEHCSIQDAQAAMRLYVMVKKEWESMARDRRPLLTAPDHCSDDA
B10: NOP14 (protein, UniProt P78316 1-857)
chain: MAKAKKVGARRKASGAPAGARGGPAKANSNPFEVKVNRQKFQILGRKTRHDVGLPGVSRARALRKRTQTLLKEYKERDKSNVFRDKRFGEYNSNMSPEEKMMKRFALEQQRHHEKKSIYNLNEDEELTHYGQSLADIEKHNDIVDSDSDAEDRGTLSAELTAAHFGGGGGLLHKKTQQEGEEREKPKSRKELIEELIAKSKQEKRERQAQREDALELTEKLDQDWKEIQTLLSHKTPKSENRDKKEKPKPDAYDMMVRELGFEMKAQPSNRMKTEAELAKEEQEHLRKLEAERLRRMLGKDEDENVKKPKHMSADDLNDGFVLDKDDRRLLSYKDGKMNVEEDVQEEQSKEASDPESNEEEGDSSGGEDTEESDSPDSHLDLESNVESEEENEKPAKEQRQTPGKGLISGKERAGKATRDELPYTFAAPESYEELRSLLLGRSMEEQLLVVERIQKCNHPSLAEGNKAKLEKLFGFLLEYVGDLATDDPPDLTVIDKLVVHLYHLCQMFPESASDAIKFVLRDAMHEMEEMIETKGRAALPGLDVLIYLKITGLLFPTSDFWHPVVTPALVCLSQLLTKCPILSLQDVVKGLFVCCLFLEYVALSQRFIPELINFLLGILYIATPNKASQGSTLVHPFRALGKNSELLVVSAREDVATWQQSSLSLRWASRLRAPTSTEANHIRLSCLAVGLALLKRCVLMYGSLPSFHAIMGPLQALLTDHLADCSHPQELQELCQSTLTEMESQKQLCRPLTCEKSKPVPLKLFTPRLVKVLEFGRKQGSSKEEQERKRLIHKHKREFKGAVREIRKDNQFLARMQLSEIMERDAERKRKVKQLFNSLATQEGEWKALKRKKFKK

The binders below were run against BAG3 (BCL-2-associated athanogene 3) (human (endogenous in HEK293T)) (UniProt O95817) (assay: affinity purification with mass spectrometry; endogenous BAG3 immunoprecipitated with anti-BAG3 antibody and Protein A/G magnetic beads from HEK293T lysate; cells treated with DMSO (basal) or 10 µM MG132 for 6 h; IgG IP (MG132_IgG) as control; label-free quantification, three biological replicates).

binding, binds:
B1
B2
B3
B4
B5
B6
B7
B8
B9
B10

No constants are given. Whether binding was seen depends on the method and setting. In cells and extracts the contact can be indirect. These calls come from enrichment with a bait or labelling near it, and not all partners need be listed.
